Measurements reported in PubChem BioAssay AID1259297 (Sanger Institute, 2017)
Here is one part, drawn at random, of 794 reagents tested. 13 of all reagents (1.6%) were called active. 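Calls reflect knock-down without drug only; drug synergy is judged separately, with scores above 0.15 counted as synergy.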 No viability above 1 is reported: the scale is capped. The record does not give: the amount of reagent, the time to read-out.

- Assay: 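siRNA screen across the kinome seeking drug partners in cells of colorectal cancer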 (primary screen)
- System: human RCM1 colorectal cancer cell line
- Knock-down reagent: siRNA pool against human genes
- Treatment: separate arms: DMSO vehicle, or one anchor drug at a mild dose: BYL719 1 µM, cetuximab 5 µg/ml, trametinib 10 nM
- Measurement: 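Replicate-mean well viability as a share of non-targeting pool control, a robust z-score without drug, and synergy scores for BYL719, cetuximab and trametinib arms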
- Direction: viability z-score, knock-down alone: higher = more viable cells than non-targeting controls; viability, knock-down alone (DMSO): higher = more viable cells; synergy score with trametinib: higher = stronger combined killing with trametinib; synergy score with BYL719: higher = stronger combined killing with BYL719; synergy score with cetuximab: higher = stronger combined killing with cetuximab
- Rule for the call: 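Called essential if knock-down without drug gives a viability robust z-score under -3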
- Meaning of the calls: active = essential when knocked down alone; inactive = no clear loss of viability alone

target,"viability z-score, knock-down alone","viability, knock-down alone (DMSO) (fraction of control)",synergy score with trametinib,synergy score with BYL719,synergy score with cetuximab,Outcome
SRMS,-0.915,0.832,0.0747,-0.0264,0.00105,inactive
PRKD3,-0.13,0.904,0.0676,-0.104,0.0941,inactive
NEK2,-0.0594,0.911,0.00917,0.0474,-0.0142,inactive
MAP4K1,0.393,0.953,-0.00828,-0.035,-0.109,inactive
STAG2,0.389,0.953,-0.0689,-0.117,-0.16,inactive
CDK15,0.265,0.941,-0.015,-0.0818,-0.17,inactive
MOS,-1.09,0.815,0.082,0.0361,-0.0816,inactive
TAB1,0.9,1,-0.023,-0.0728,-0.118,inactive
PKN1,0.9,1,-0.129,-0.0728,-0.118,inactive
ERBB4,-1.45,0.782,-0.0521,-0.0866,-0.0928,inactive
MAPK12,0.9,1,-0.0817,0,0.0645,inactive
PTEN,-0.142,0.903,0.0722,-0.00218,0.031,inactive
PMVK,-0.667,0.855,0.00597,-0.0515,0.0186,inactive
SPHK1,0.141,0.93,0.0205,-0.057,0.00246,inactive
NAGK,0.00189,0.917,-0.0513,-0.0348,-0.0776,inactive
MAST4,0.0889,0.925,-0.0807,-0.0202,-0.185,inactive
KMT2B,0.9,1,-0.0604,-0.0535,-0.0703,inactive
ADCK1,0.3,0.944,0.0145,0.0388,-0.167,inactive
MAP3K21,-0.624,0.858,0.0393,0.0306,-0.12,inactive
EFNA5,0.671,0.979,-0.037,-0.00779,-0.137,inactive
BRAF,-0.103,0.907,0.0827,0.0593,0.0649,inactive
COMMD3,0.251,0.94,0.0506,0.132,-0.0222,inactive
PACSIN1,0.405,0.954,-0.0278,-0.103,-0.136,inactive
PDGFRL,0.81,0.992,0.108,0.0425,-0.108,inactive
PAK4,0.29,0.943,-0.00886,-0.0273,-0.123,inactive
PRKACB,0.9,1,0.036,0.0655,0.0818,inactive
RIPK2,0.9,1,0.167,-0.0728,-0.0829,inactive
GNAS,-2.52,0.683,-0.12,-0.0161,0.0708,inactive
GUCY2F,0.829,0.993,0.0539,-0.0345,-0.124,inactive
PFKL,0.9,1,-0.0477,-0.0728,-0.118,inactive
MPP2,0.224,0.937,0.0596,-0.0265,0.059,inactive
CDK9,0.79,0.99,-0.002,-0.0416,-0.0993,inactive
BMPR1A,-0.837,0.839,-0.0808,-0.14,-0.251,inactive
ADGRL2,0.419,0.955,0.0253,-0.103,-0.149,inactive
ALPK1,-0.329,0.886,0.0511,-0.035,-0.139,inactive
WEE1,-2.93,0.645,0.0247,-0.0235,-0.0834,inactive
PRPS2,0.488,0.962,-0.0166,0.035,-0.0587,inactive
SRPK2,0.597,0.972,0.0496,0.0951,0.0105,inactive
PIP5KL1,0.503,0.963,-0.00102,0.081,0.00813,inactive
STK33,-1.23,0.803,0.126,-0.0601,-0.0825,inactive
FN3KRP,-2.46,0.688,0.129,0.169,0.214,inactive
PAPSS2,0.885,0.999,0.0935,0.0418,-0.119,inactive
PIK3R1,0.9,1,0.0217,-0.0554,-0.118,inactive
AKT2,-0.893,0.834,0.0949,0.0965,-0.121,inactive
AURKC,-0.24,0.894,0.0183,-0.106,-0.12,inactive
CKMT1B,0.376,0.951,0.111,-0.061,-0.0759,inactive
ULK4,-1.03,0.821,-0.00539,-0.056,0.00427,inactive
NUAK2,-0.31,0.888,-0.0117,-0.0676,-0.0347,inactive
PIP5K1B,0.000614,0.916,0.102,-0.15,-0.181,inactive
MLKL,-0.291,0.889,0.0864,-0.00588,-0.151,inactive
PIP5K1C,0.135,0.929,0.0621,0.0498,-0.164,inactive
RAF1,-0.511,0.869,-0.00134,0.048,-0.108,inactive
RPS6KA1,0.9,1,0.0232,-0.0728,-0.118,inactive
CSNK1A1,0.704,0.982,-0.229,-0.0897,-0.134,inactive
AKT1,0.9,1,0.0342,-0.0728,-0.0517,inactive
NUAK1,-2.09,0.722,0.0688,-0.048,0.00111,inactive
AK4,0.31,0.945,0.0587,0.018,-0.123,inactive
PRKAG3,-1.82,0.747,0.0921,0.0037,-0.0173,inactive
AK3,0.32,0.946,0.0885,-0.123,-0.158,inactive
IPPK,0.9,1,0.0676,0.0956,-0.118,inactive
PPP2R1A,0.795,0.99,-0.0615,-0.0299,0.00346,inactive
UCKL1,0.9,1,-0.0207,0.0196,-0.115,inactive
PLK3,0.9,1,0.0569,-0.0657,-0.00859,inactive

6 entries already listed, ordered by “viability, knock-down alone (DMSO) (fraction of control)”, low to high.
target,"viability z-score, knock-down alone","viability, knock-down alone (DMSO) (fraction of control)",synergy score with trametinib,synergy score with BYL719,synergy score with cetuximab,Outcome
ULK4,-1.03,0.821,-0.00539,-0.056,0.00427,inactive
RAF1,-0.511,0.869,-0.00134,0.048,-0.108,inactive
NUAK2,-0.31,0.888,-0.0117,-0.0676,-0.0347,inactive
MLKL,-0.291,0.889,0.0864,-0.00588,-0.151,inactive
PIP5K1B,0.000614,0.916,0.102,-0.15,-0.181,inactive
PIP5K1C,0.135,0.929,0.0621,0.0498,-0.164,inactive
